# Results of single-concentration screens

The chains behind the UniProt entries cited, without tags or fusion partners.
UniProt P9WFT3, whole entry: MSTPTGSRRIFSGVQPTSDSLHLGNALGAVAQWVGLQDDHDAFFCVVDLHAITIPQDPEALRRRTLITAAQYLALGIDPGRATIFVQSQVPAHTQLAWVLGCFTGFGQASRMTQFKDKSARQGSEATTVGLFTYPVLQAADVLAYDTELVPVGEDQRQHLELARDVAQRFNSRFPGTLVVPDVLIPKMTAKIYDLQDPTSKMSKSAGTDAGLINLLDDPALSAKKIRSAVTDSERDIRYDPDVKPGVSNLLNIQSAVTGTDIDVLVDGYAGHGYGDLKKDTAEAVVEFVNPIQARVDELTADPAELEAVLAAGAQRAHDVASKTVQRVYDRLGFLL

Leishmania in macrophages: 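Cell assay of Leishmania donovani living inside macrophages; the read-out is not stated. Concentration: 30 µM. The record gives no direction; compounds that gave an IC50 in retests scored well above the rest, so higher reads as stronger inhibition. Of about 69,000 compounds tested this way, about 1,000 (1.5%) reached 50% or more in at least one test.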
MtTrpRS: 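Tryptophan-tRNA ligase, Mycobacterium tuberculosis (UniProt P9WFT3). Enzyme assay of tryptophanyl-tRNA synthetase; the read-out is not stated. Tested at 10 µM. Higher most likely means stronger inhibition; the record gives no direction and few retests gave an IC50. Size under these conditions: about 65,000 compounds, about 64 of them at 50% or above in at least one test.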
T. brucei: 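Whole-parasite assay of Trypanosoma brucei over 72 hours; the read-out is not stated. Tested at 30 µM. Direction is inferred from retests: higher values go with stronger inhibition. Values scatter widely below zero; nearly all retest evidence comes from the higher of the two concentrations used. Of about 64,000 compounds tested this way, about 940 (1.5%) reached 50% or more in at least one test.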

Results are given as percent effect.
The record does not define 0% and 100%; most values in the screen are far below 50% and negative numbers occur (in some assays of this library far below -100).
This is an unselected part of the compounds tested.
Two or more numbers in one place are separate tests of the same structure; such repeats can differ widely.
A dash means the value is not listed here; it may have been measured.

compound,Leishmania in macrophages,MtTrpRS,T. brucei
CCN1CC(C(=O)NCCc2csc(-c3ccncc3)n2)CCC1=O (stereo not given),-3.671%,4.454%,4.367%
COCCCN(Cc1cnc(-c2cccs2)nc1)C1CCN(C)CC1,3.93%,-4.699%,-7.252%
CC(=O)Nc1ccc(CNC2COc3c2ccc(C)c3C)cc1 (stereo not given),-6.145%,-1.3%,-604.2%
CN1CCN(Cc2cccnc2)Cc2cccnc21,18.8%,-0.5348%,3.429%
CN(C)CCN(Cc1ccc(Cl)cc1)C(=O)c1ccn(C)c(=O)c1,12.39%,2.449%,-24.16%
CC1(C)O[C@@](C)([C@H]2CC3(CCN(c4cnccn4)CC3)CO2)CC[C@@H]1O,-,-0.5277%,-
Cc1cc(-c2cccnc2)nc(C2CCCN2S(C)(=O)=O)n1 (stereo not given),0.6744%,-6.182%,-
O=C(C1CCCC1)N1CCC(c2n[nH]c3nccnc23)CC1,8.1% & 2.108%,-,4.882%
CCC(C)(NCC(=O)OC)c1nc(C)cs1 (stereo not given),6.061%,1.319%,-18.93%
Cc1nc(N2CCC(CC(=O)N3CCCC3)CC2)c2cnn(C)c2n1,44.84%,-0.9855%,-20.01%
Cc1c(NC(=O)NCCO)cccc1OC1CCCC1,7.367%,0.1022%,-29.44%
Cc1cnn(CCNCC(=O)NCCOc2ccccc2)c1,1.213%,-0.4873%,-41.38%
COCCN(C)c1nc(-c2ccncc2)nc2c1CCN(C(C)=O)C2,6.611%,-0.08032%,-19.84%
CCOc1ccccc1C(CC(=O)N(C)c1ccccc1)NC(C)=O (stereo not given),8.592%,4.769%,-17.56%
Cc1noc([C@H]2C[C@H]3OCC[C@H]3N(S(C)(=O)=O)C2)n1,-,3.592%,-
OCc1cc(C2CCCN2c2ncccn2)n[nH]1 (stereo not given),-15.16%,-6.201%,-14.48%
CN1CCCN(C(=O)c2cc(-c3cc[nH]n3)n3ccccc23)CC1.O=C(O)C(F)(F)F.O=C(O)C(F)(F)F,34.96%,-,-20.95%
Cc1ccc(C(=O)N2CCc3c(COCC4CC4)cncc3C2)o1,-21.23%,2.058%,-16.7%
CC(C)N1CCC2(CCN(C(=O)c3cccnc3)CC2)C1.O=C(O)C(F)(F)F.O=C(O)C(F)(F)F,-16.21%,-,-
Cc1csc2ncc(-c3ccnc(N4CCCC[C@@H]4CO)n3)c(=O)n12,-38.24%,-3.294%,-10.07%
CC(NCc1ccncc1)c1ccc(N2CCN(C)CC2)c(F)c1 (stereo not given),-,-1.371%,-
CCN1C(=O)CCCC12CCCN(C(=O)c1conc1C)C2 (stereo not given),19.68%,1.603%,-5.84%
Cc1nc(N)c2ccc(C3CCCCN3)nc2n1.Cl (stereo not given),-2.618%,-,-17.89%
Cc1cc(CN(C)CC2CCCCC2)no1,1.622%,-3.965%,-27.89%
CCn1nc2c(cc1=O)CN(Cc1nc(-c3ccsc3)no1)CC2,14.98%,-0.2227%,-18.69%
Cn1cc(CN2C[C@@H]3COC[C@]3(CNC(=O)c3ccco3)C2)cn1,-,-1.137%,-
CC(CCN1CCOCC1)NC(=O)c1cccc(C(F)(F)F)c1F (stereo not given),20.26%,-4.935%,-9.356%
CC(=O)NC(C)(C)C(=O)Nc1ncc(Cc2ccc(C)c(F)c2)s1,11.96%,-2.632%,17.51%
CCCNC(=O)C1CCN(CC2(O)CCC(C)CC2)CC1 (stereo not given),-5.57%,-0.2244%,-17.97%
CCc1nnc(CN(CC)C(=O)C2CC(=O)N(C(C)(C)C)C2)o1 (stereo not given),-10.9%,-3.543%,7.946%
Cc1ncsc1C(=O)Nc1ccccn1,22.9%,-3.081%,-15.85%
[H][C@@]12CS(=O)(=O)C[C@]1([H])N(Cc1nccn1C)CCN2CC=C(C)C,17.17%,-,1.064%
CC(NC(=O)CCn1c(=O)oc2ccccc21)c1ccccn1 (stereo not given),18.29%,-6.38%,8.498%
Cc1noc(C)c1CN1C[C@@H](N(C)Cc2ccco2)[C@H]2OCCC[C@H]21,-,-6.141%,-
Cc1ccc(-c2nnc(CN3CC(n4cc(C)cn4)C3)o2)cc1,12.61%,2.999%,-4.601%
CCOc1cc(C(=O)N(C)C)ccc1NC(=O)c1ccsc1,25%,-2.428%,-47.18%
Cc1cc(C)n(CC(C)NC(=O)C(C)(C)c2ccccc2F)n1 (stereo not given),-9.097%,17.92%,-93.6%
O=C(O)C(F)(F)F.[H][C@@]12C[C@H](C(=O)NCCN(C)C)[C@@]([H])(CN(C(=O)NCc3ccccc3)C1)O2,31.16%,-,15.41%
Cc1nc(CN2CCC(CNC(=O)Nc3ccccn3)CC2)oc1C,22.14%,-5.7%,1.771%
CCn1ncc2c1C(COC)N(C(=O)c1ccsc1)CC2.O=C(O)C(F)(F)F (stereo not given),16.14%,-,-52.11%
CN(C)c1ncccc1CNS(=O)(=O)c1cc(F)ccc1F,13.75%,-3.626%,-
CCOC(=O)C1(Cc2cccc(OC)c2)CCN(Cc2ccon2)CC1,-10.48%,4.197%,-
COCCc1noc(CNC2CCCN(c3cccnn3)C2)n1 (stereo not given),-23.37%,-2.568%,-24.03%
COc1c(Br)c(C(=O)NC2CC2)nn1C,-15.65%,2.576%,-17.41%
CC(C#N)(NC(=O)c1ccc(C#N)cc1)C1CC1 (stereo not given),0.04313%,0.7227%,-13.93%
Cc1cnn(CC2CN(Cc3nnc(C(C)C)o3)CCO2)c1 (stereo not given),14.93%,-4.916%,-21.78%
CC(C)(CO)Nc1cc(-c2ccccc2)ncn1,6.25% & 14.03%,-,13.94%
CC(C(=O)Nc1ncccn1)N1CCCN(c2nccs2)CC1 (stereo not given),15.74%,1.114%,-14.98%
COc1ccc(-c2nc3c([nH]2)CCCNC3=O)cc1OC,-29.46%,0.5161%,-51.91%
Cc1cccc(CN2CCC3(CC2)NC(=O)CC3c2ccccc2)n1 (stereo not given),-,-5.804%,-
CCc1nc(CN2CCCN(c3ncnc4ccccc34)CC2)no1,55.68%,2.237%,-45.57%
CC(C)c1nsc(N2CCOCC2)n1,-18.46%,-2.583%,-6.547%
[H][C@]12CCCN(C(=O)c3ccsc3)[C@@]1([H])CN(C(=O)c1ccco1)C2,13.86%,-,-1.941%
Cc1nsc(NC(=O)N2CCC(C(C)(C)O)CC2)n1,2.13%,-5.197%,-36.87%

Once more, the final 5:

compound	Leishmania in macrophages	MtTrpRS	T. brucei
Cc1cccc(CN2CCC3(CC2)NC(=O)CC3c2ccccc2)n1 (stereo not given)	-	-5.804%	-
CCc1nc(CN2CCCN(c3ncnc4ccccc34)CC2)no1	55.68%	2.237%	-45.57%
CC(C)c1nsc(N2CCOCC2)n1	-18.46%	-2.583%	-6.547%
[H][C@]12CCCN(C(=O)c3ccsc3)[C@@]1([H])CN(C(=O)c1ccco1)C2	13.86%	-	-1.941%
Cc1nsc(NC(=O)N2CCC(C(C)(C)O)CC2)n1	2.13%	-5.197%	-36.87%

From ChEMBL document CHEMBL3988442, “University of Dundee, Small-Polar-MMV Screening Library” (2021).